Results deposited as PubChem BioAssay AID1259308 (NCATS, 2017).
Shown is a random part of about 59,000 deposited reagents. Of all reagents, about 1,510 (2.6%) got an active call. 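Calls use total luciferase alone and ignore viability, so some active siRNAs may act by altering cell number.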 A number with no mark means an inactive call.

- Assay: 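Candidate targets for better recombinant protein yield in mammalian cells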 (primary screen)
- Cells: human HEK293 embryonic kidney cells stably expressing firefly luciferase (HEK-CMV-Luc2-Hygro)
- Reagent: single siRNA against human genes, 0.8 pmol siRNA per well
- Time to read-out: 72 h
- Detection: 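Reporter luminescence and viable-cell signal on separate replicate plates, given as percent of non-targeting control and median/MAD z-scores, plus per-cell luciferase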
- Reading the numbers: total luciferase, z-score and total luciferase, % of control: higher = more reporter protein produced; luciferase per cell, z-score: higher = more reporter output per viable cell; viable cells, % of control: higher = more viable cells
- Hit rule: 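An siRNA counts as active if its total luciferase robust z-score exceeds 3; genes with two or more such siRNAs out of three were retested with fresh siRNAs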
- Calls: active = raised luciferase; inactive = no rise

gene symbol	PubChem SID	total luciferase, z-score	total luciferase, % of control	luciferase per cell, z-score	viable cells, % of control
MSRB2	SID160733557	1.51	112	0.944	97.5
MSRB2	SID160733565	-1.09	60.2	0.358	61.2
MSRB2	SID160733573	-0.662	68.7	-0.755	93.7
DNAJB5	SID160737048	1.32	108	1.01	92.5
DNAJB5	SID160737049	-0.825	65.5	-0.751	89.2
DNAJB5	SID160737050	3.71 (active)	156	2.16	98.6
IFFO1	SID160737208	2.48	131	1.62	95.8
IFFO1	SID160737209	-0.721	67.5	-0.706	90.9
IFFO1	SID160737210	1.92	120	1.2	97.9
NCOA4P4	SID160768559	1.33	108	1.65	78.5
NCOA4P4	SID160768560	-2.14	39.2	-0.654	52.1
NCOA4P4	SID160768561	-0.00144	81.9	-0.633	108
GRHPR	SID160722084	0.215	86.2	-0.234	102
GRHPR	SID160722085	1.21	106	1.18	86.6
GRHPR	SID160722086	0.909	100	0.196	106
SGTB	SID160741927	0.667	95.1	0.719	88
SGTB	SID160741928	-0.168	78.6	-0.255	93.9
SGTB	SID160741929	-0.189	78.1	-0.483	99.1
TAS2R8	SID160739742	0.594	93.7	-0.245	112
TAS2R8	SID160739743	0.118	84.2	0.224	88.7
TAS2R8	SID160739744	1.4	110	0.415	110
ELP5	SID160736618	-0.304	75.8	-0.728	103
ELP5	SID160736619	0.61	94	0.00784	105
ELP5	SID160736620	0.896	99.7	0.363	101
